Measurements: PMC4678830
Where a chain is given by its changes, count along the chain named. Construct, isoform or probe ends are uncertain for at least one entry. For some of these results: Weaker means in comparison with the reference protein, sequence or condition of that experiment. Protein sequences can lack the tags named with them. For some of these results: At least one verdict was read from the data and is not stated in words by the source.

How the values were obtained:
Test in all cases: EMSA
[1] = biological target: T1, SNM1A nuclease domain WT (human) (UniProt Q6PJP8); details: no added metal stated; 5'-phosphate; EMSA: 1 nM DNA, 20 mM HEPES pH 7.9, 50 mM KCl, 0.5 mM DTT, 0.05% Triton-X, 0.1 mg/ml BSA, 5% glycerol, 5 min at 37 C, then ice; loading dye with 10 mM EDTA; recombinant protein; residues 676-1040; protein details: His tag removed by TEV; label: 3' 32P-dATP added by TdT; single-stranded DNA; letters put together from the description
T1 sequence (looked up): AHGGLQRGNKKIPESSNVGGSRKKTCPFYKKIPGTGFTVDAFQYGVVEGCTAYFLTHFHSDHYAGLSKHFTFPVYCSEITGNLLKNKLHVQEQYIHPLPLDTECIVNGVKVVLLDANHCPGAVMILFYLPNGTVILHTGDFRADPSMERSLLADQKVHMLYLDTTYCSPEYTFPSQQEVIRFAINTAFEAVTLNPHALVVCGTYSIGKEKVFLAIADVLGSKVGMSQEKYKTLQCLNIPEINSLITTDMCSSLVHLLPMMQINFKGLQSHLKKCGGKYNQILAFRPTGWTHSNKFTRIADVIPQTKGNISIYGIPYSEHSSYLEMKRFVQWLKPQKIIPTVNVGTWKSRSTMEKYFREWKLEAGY

[2] = biological target: T2, SNM1B-S183A S183A,S330F (human) (UniProt Q9H816); details: no added metal stated; 5'-phosphate; EMSA: 1 nM DNA, 20 mM HEPES pH 7.9, 50 mM KCl, 0.5 mM DTT, 0.05% Triton-X, 0.1 mg/ml BSA, 5% glycerol, 5 min at 37 C, then ice; loading dye with 10 mM EDTA; recombinant protein; residues 1-335; protein details: His tag removed by TEV; label: 3' 32P-dATP added by TdT; single-stranded DNA; letters put together from the description
T2 sequence (looked up): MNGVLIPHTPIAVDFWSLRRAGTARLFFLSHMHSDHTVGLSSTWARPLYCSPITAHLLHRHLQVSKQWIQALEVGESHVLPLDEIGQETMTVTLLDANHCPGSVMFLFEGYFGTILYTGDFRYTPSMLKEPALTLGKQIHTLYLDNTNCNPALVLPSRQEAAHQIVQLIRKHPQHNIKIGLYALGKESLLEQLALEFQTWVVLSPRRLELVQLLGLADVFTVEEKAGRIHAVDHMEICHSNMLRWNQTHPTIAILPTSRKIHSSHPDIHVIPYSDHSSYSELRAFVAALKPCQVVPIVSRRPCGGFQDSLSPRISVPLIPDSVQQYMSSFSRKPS

[3] = biological target: T3, SNM1B/Apollo nuclease domain WT S330F (human) (UniProt Q9H816); details: no added metal stated; 5'-phosphate; EMSA: 1 nM DNA, 20 mM HEPES pH 7.9, 50 mM KCl, 0.5 mM DTT, 0.05% Triton-X, 0.1 mg/ml BSA, 5% glycerol, 5 min at 37 C, then ice; loading dye with 10 mM EDTA; recombinant protein; residues 1-335; protein details: His tag removed by TEV; label: 3' 32P-dATP added by TdT; single-stranded DNA; letters put together from the description
T3 sequence (looked up): T2 sequence (looked up) with A183S

[4] = biological target: T4, SNM1A-K904A-K906T (human) (UniProt Q6PJP8); details: no added metal stated; 5'-phosphate; EMSA: 1 nM DNA, 20 mM HEPES pH 7.9, 50 mM KCl, 0.5 mM DTT, 0.05% Triton-X, 0.1 mg/ml BSA, 5% glycerol, 5 min at 37 C, then ice; loading dye with 10 mM EDTA; recombinant protein; residues 676-1040; protein details: His tag removed by TEV; label: 3' 32P-dATP added by TdT; single-stranded DNA; letters put together from the description
T4 sequence (looked up): T1 sequence (looked up) with K229A, K231T

**Q.** Does “TTATAAATAAAATATTAAAACCAATTTGATCATCTATTATATATTTATTAA [51-mer ssDNA (50-mer top strand plus 3' labelled dA)]” bind [1]?
**A.** Result: binds

**Q.** Does “TTATAAATAAAATATTAAAACCAATTTGATCATCTATTATATATTTATTAA [51-mer ssDNA (50-mer top strand plus 3' labelled dA)]” bind [2]?
**A.** Result: binds more weakly

**Q.** Does “TTATAAATAAAATATTAAAACCAATTTGATCATCTATTATATATTTATTAA [51-mer ssDNA (50-mer top strand plus 3' labelled dA)]” bind [3]?
**A.** Result: binds

**Q.** Does “TTATAAATAAAATATTAAAACCAATTTGATCATCTATTATATATTTATTAA [51-mer ssDNA (50-mer top strand plus 3' labelled dA)]” bind [4]?
**A.** Result: binds more weakly
